From paper PMC6321601 (Molecules, 2018)

These molecules were tested on HepG-2 and L-O2 cell lines (assay: Therapeutic index, ratio of IC50 for L-O2 to IC50 for HepG-2). Details: IC50 (L-O2)/IC50 (HepG-2).
Assay type: cell-based, human

Row | Structure (SMILES) | TI (Therapeutic Index)
1 | COc1cccc2c1C(=O)c1c(O)c3c(c(O)c1C2=O)C[C@@](O)(C(=O)CO)C[C@@H]3O[C@H]1C[C@H](N)[C@H](O)[C@H](C)O1 [ADR, adriamycin, reference compound] | 0.14
2 | CCC(=O)O[C@@H]1C[C@@]2(C)C3CC=C4C(C[C@H](O)C(=O)C4(C)C)[C@]3(C)C(=O)C[C@]2(C)C1[C@@](C)(O)C(=O)/C=C/C(C)(C)OC(C)=O (stereo partly drawn) [Compound 3a, (2S,9R,13R,14S,16R)-17-((R,E)-6-Acetoxy-2-hydroxy-6-methyl-3-oxohept-4-en-2-yl)-2-hydroxy-4,4,9,13,14-pentamethyl-3,11-dioxo-2,3,4,7,8,9,10,11,12,13,14,15,16,17-tetradecahydro-1H-cyclopenta[a]phenanthren-16-yl propionate] | 1
3 | CC(=O)OC(C)(C)/C=C/C(=O)[C@](C)(O)C1[C@H](OC(=O)C2CCC2)C[C@@]2(C)C3CC=C4C(CC(O)C(=O)C4(C)C)[C@]3(C)C(=O)C[C@]12C (stereo partly drawn) [Compound 3b, (9R,13R,14S,16R)-17-((R,E)-6-Acetoxy-2-hydroxy-6-methyl-3-oxohept-4-en-2-yl)-2-hydroxy-4,4,9,13,14-pentamethyl-3,11-dioxo-2,3,4,7,8,9,10,11,12,13,14,15,16,17-tetradecahydro-1H-cyclopenta[a]phenanthren-16-yl cyclobutanecarboxylate] | 0.96
4 | CC(=O)OC(C)(C)/C=C/C(=O)[C@](C)(O)C1[C@H](OC(=O)C2CCCC2)C[C@@]2(C)C3CC=C4C(C[C@H](O)C(=O)C4(C)C)[C@]3(C)C(=O)C[C@]12C (stereo partly drawn) [Compound 3c, (2S,9R,13R,14S,16R)-17-((R,E)-6-Acetoxy-2-hydroxy-6-methyl-3-oxohept-4-en-2-yl)-2-hydroxy-4,4,9,13,14-pentamethyl-3,11-dioxo-2,3,4,7,8,9,10,11,12,13,14,15,16,17-tetradecahydro-1H-cyclopenta[a]phenanthren-16-yl cyclopentanecarboxylate] | 0.97
5 | CC(=O)OC(C)(C)/C=C/C(=O)[C@](C)(O)C1[C@H](OC(=O)CCCCNC(=O)OC(C)(C)C)C[C@@]2(C)C3CC=C4C(C[C@H](O)C(=O)C4(C)C)[C@]3(C)C(=O)C[C@]12C (stereo partly drawn) [Compound 3d, (2S,9R,13R,14S,16R)-17-((R,E)-6-Acetoxy-2-hydroxy-6-methyl-3-oxohept-4-en-2-yl)-2-hydroxy-4,4,9,13,14-pentamethyl-3,11-dioxo-2,3,4,7,8,9,10,11,12,13,14,15,16,17-tetradecahydro-1H-cyclopenta[a]phenanthren-16-yl 5-((tert-butoxycarbonyl)amino)pentanoate] | 1.64
6 | CC(=O)OC(C)(C)/C=C/C(=O)[C@](C)(O)C1[C@H](OC(=O)CCCCN(C)C(=O)OC(C)(C)C)C[C@@]2(C)C3CC=C4C(C[C@H](O)C(=O)C4(C)C)[C@]3(C)C(=O)C[C@]12C (stereo partly drawn) [Compound 3e, (2S,9R,13R,14S,16R)-17-((R,E)-6-Acetoxy-2-hydroxy-6-methyl-3-oxohept-4-en-2-yl)-2-hydroxy-4,4,9,13,14-pentamethyl-3,11-dioxo-2,3,4,7,8,9,10,11,12,13,14,15,16,17-tetradecahydro-1H-cyclopenta[a]phenanthren-16-yl 5-((tert-butoxycarbonyl)(methyl)amino)pentanoate] | 0.59
7 | CC(=O)OC(C)(C)/C=C/C(=O)[C@](C)(O)C1[C@H](OC(=O)CCCN(C)C(=O)OC(C)(C)C)C[C@@]2(C)C3CC=C4C(C[C@H](O)C(=O)C4(C)C)[C@]3(C)C(=O)C[C@]12C (stereo partly drawn) [Compound 3f, (2S,9R,13R,14S,16R)-17-((R,E)-6-Acetoxy-2-hydroxy-6-methyl-3-oxohept-4-en-2-yl)-2-hydroxy-4,4,9,13,14-pentamethyl-3,11-dioxo-2,3,4,7,8,9,10,11,12,13,14,15,16,17-tetradecahydro-1H-cyclopenta[a]phenanthren-16-yl 4-((tert-butoxycarbonyl)(methyl)amino)butanoate] | 0.44
8 | CC(=O)OC(C)(C)/C=C/C(=O)[C@](C)(O)C1[C@H](OC(=O)CCc2ccccc2NC(=O)OC(C)(C)C)C[C@@]2(C)C3CC=C4C(C[C@H](O)C(=O)C4(C)C)[C@]3(C)C(=O)C[C@]12C (stereo partly drawn) [Compound 3g, (2S,9R,13R,14S,16R)-17-((R,E)-6-Acetoxy-2-hydroxy-6-methyl-3-oxohept-4-en-2-yl)-2-hydroxy-4,4,9,13,14-pentamethyl-3,11-dioxo-2,3,4,7,8,9,10,11,12,13,14,15,16,17-tetradecahydro-1H-cyclopenta[a]phenanthren-16-yl 3-(2-((tert-butoxycarbonyl)amino)phenyl)propanoate] | 0.19
9 | CC(=O)OC(C)(C)/C=C/C(=O)[C@](C)(O)C1[C@H](OC(=O)c2ccc(C)cc2)C[C@@]2(C)C3CC=C4C(C[C@H](O)C(=O)C4(C)C)[C@]3(C)C(=O)C[C@]12C (stereo partly drawn) [Compound 3h, (2S,9R,13R,14S,16R)-17-((R,E)-6-Acetoxy-2-hydroxy-6-methyl-3-oxohept-4-en-2-yl)-2-hydroxy-4,4,9,13,14-pentamethyl-3,11-dioxo-2,3,4,7,8,9,10,11,12,13,14,15,16,17-tetradecahydro-1H-cyclopenta[a]phenanthren-16-yl 4-methylbenzoate] | 0.72
10 | CC(=O)OC(C)(C)/C=C/C(=O)[C@](C)(O)C1[C@H](OC(=O)c2ccc(F)cc2)C[C@@]2(C)C3CC=C4C(C[C@H](O)C(=O)C4(C)C)[C@]3(C)C(=O)C[C@]12C (stereo partly drawn) [Compound 3i, (2S,9R,13R,14S,16R)-17-((R,E)-6-Acetoxy-2-hydroxy-6-methyl-3-oxohept-4-en-2-yl)-2-hydroxy-4,4,9,13,14-pentamethyl-3,11-dioxo-2,3,4,7,8,9,10,11,12,13,14,15,16,17-tetradecahydro-1H-cyclopenta[a]phenanthren-16-yl 4-fluorobenzoate] | 0.60
11 | CC(=O)OC(C)(C)/C=C/C(=O)[C@](C)(O)C1[C@H](OC(=O)c2ccc(Cl)cc2)C[C@@]2(C)C3CC=C4C(C[C@H](O)C(=O)C4(C)C)[C@]3(C)C(=O)C[C@]12C (stereo partly drawn) [Compound 3j, (2S,9R,13R,14S,16R)-17-((R,E)-6-Acetoxy-2-hydroxy-6-methyl-3-oxohept-4-en-2-yl)-2-hydroxy-4,4,9,13,14-pentamethyl-3,11-dioxo-2,3,4,7,8,9,10,11,12,13,14,15,16,17-tetradecahydro-1H-cyclopenta[a]phenanthren-16-yl 4-chlorobenzoate] | 0.76
12 | CC(=O)OC(C)(C)/C=C/C(=O)[C@](C)(O)C1[C@H](OC(=O)c2ccc(Br)cc2)C[C@@]2(C)C3CC=C4C(C[C@H](O)C(=O)C4(C)C)[C@]3(C)C(=O)C[C@]12C (stereo partly drawn) [Compound 3k, (2S,9R,13R,14S,16R)-17-((R,E)-6-Acetoxy-2-hydroxy-6-methyl-3-oxohept-4-en-2-yl)-2-hydroxy-4,4,9,13,14-pentamethyl-3,11-dioxo-2,3,4,7,8,9,10,11,12,13,14,15,16,17-tetradecahydro-1H-cyclopenta[a]phenanthren-16-yl 4-bromobenzoate] | 0.65
13 | COc1ccc(C(=O)O[C@@H]2C[C@@]3(C)C4CC=C5C(C[C@H](O)C(=O)C5(C)C)[C@]4(C)C(=O)C[C@]3(C)C2[C@@](C)(O)C(=O)/C=C/C(C)(C)OC(C)=O)cc1 (stereo partly drawn) [Compound 3l, (2S,9R,13R,14S,16R)-17-((R,E)-6-Acetoxy-2-hydroxy-6-methyl-3-oxohept-4-en-2-yl)-2-hydroxy-4,4,9,13,14-pentamethyl-3,11-dioxo-2,3,4,7,8,9,10,11,12,13,14,15,16,17-tetradecahydro-1H-cyclopenta[a]phenanthren-16-yl 4-methoxybenzoate] | 0.67
14 | CC(=O)OC(C)(C)/C=C/C(=O)[C@](C)(O)C1[C@H](OC(=O)c2ccc([N+](=O)[O-])cc2)C[C@@]2(C)C3CC=C4C(C[C@H](O)C(=O)C4(C)C)[C@]3(C)C(=O)C[C@]12C (stereo partly drawn) [Compound 3m, (2S,9R,13R,14S,16R)-17-((R,E)-6-Acetoxy-2-hydroxy-6-methyl-3-oxohept-4-en-2-yl)-2-hydroxy-4,4,9,13,14-pentamethyl-3,11-dioxo-2,3,4,7,8,9,10,11,12,13,14,15,16,17-tetradecahydro-1H-cyclopenta[a]phenanthren-16-yl 4-nitrobenzoate] | 0.8
15 | CC(=O)OC(C)(C)/C=C/C(=O)[C@](C)(O)C1[C@H](OC(=O)c2cccc(F)c2)C[C@@]2(C)C3CC=C4C(C[C@H](O)C(=O)C4(C)C)[C@]3(C)C(=O)C[C@]12C (stereo partly drawn) [Compound 3n, (2S,9R,13R,14S,16R)-17-((R,E)-6-Acetoxy-2-hydroxy-6-methyl-3-oxohept-4-en-2-yl)-2-hydroxy-4,4,9,13,14-pentamethyl-3,11-dioxo-2,3,4,7,8,9,10,11,12,13,14,15,16,17-tetradecahydro-1H-cyclopenta[a]phenanthren-16-yl 3-fluorobenzoate] | 0.61
16 | CC(=O)OC(C)(C)/C=C/C(=O)[C@](C)(O)C1[C@H](OC(=O)C=Cc2ccccc2)C[C@@]2(C)C3CC=C4C(C[C@H](O)C(=O)C4(C)C)[C@]3(C)C(=O)C[C@]12C (stereo partly drawn) [Compound 3o, (2S,9R,13R,14S,16R)-17-((R,E)-6-Acetoxy-2-hydroxy-6-methyl-3-oxohept-4-en-2-yl)-2-hydroxy-4,4,9,13,14-pentamethyl-3,11-dioxo-2,3,4,7,8,9,10,11,12,13,14,15,16,17-tetradecahydro-1H-cyclopenta[a]phenanthren-16-yl cinnamate] | 2.9
17 | CC(=O)OC(C)(C)/C=C/C(=O)[C@](C)(O)C1[C@H](OC(=O)/C=C/c2ccc(C#N)cc2)C[C@@]2(C)C3CC=C4C(C[C@H](O)C(=O)C4(C)C)[C@]3(C)C(=O)C[C@]12C (stereo partly drawn) [Compound 3p, (2S,9R,13R,14S,16R)-17-((R,E)-6-Acetoxy-2-hydroxy-6-methyl-3-oxohept-4-en-2-yl)-2-hydroxy-4,4,9,13,14-pentamethyl-3,11-dioxo-2,3,4,7,8,9,10,11,12,13,14,15,16,17-tetradecahydro-1H-cyclopenta[a]phenanthren-16-yl (E)-3-(4-cyanophenyl)acrylate] | 0.63
